According to patent publication US4097471A, “Polypeptides with morphine-like activity” (American Home Products Corporation, priority 1977, dated 1978):
Not every detail of the peptide structures is certain; ends, links or a residue may be inferred. Peptide text beside a SMILES is read from it.

Tested on: pain threshold (tail-flick latency)
Test: rat-tail flick method, intracerebroventricular injection
Type: in vivo
Conditions: injected into lateral ventricle; for Mean % Change ± SEM: drug minus baseline latency
Protocol: In this test method, which is a standard test for analgesia, a light beam is focused on the tip of the rat's tail, and the pain threshold of the animal is measured by the latency of the rat to remove his tail from the noxious heat source. When tested by the rat-tail flick method by intracerebroventricular injection, according to the procedure of Belluzzi et al., Nature, 260, 625 (1976), the polypeptides of this invention produced the effects set forth in Table I.
*All drugs were dissolved in […]. of Ringer's solution and injected int
the lateral ventricle through permanently-indwelling cannulae.

CSCC[C@H](NC(=O)[C@H](Cc1ccccc1)NC(=O)CNC(=O)CNC(=O)[C@@H](N)Cc1ccc(O)cc1)C(=O)N[C@H](C(=O)N[C@@H](CO)C(=O)N[C@@H](CCC(=O)O)C(=O)N[C@@H](CCCCN)C(=O)N[C@@H](CO)C(=O)N[C@@H](CCC(N)=O)C(=O)N[C@H](C(=O)N1CCC[C@H]1C(=O)N[C@@H](CC(C)C)C(=O)N[C@H](C(=O)N[C@H](C(=O)O)[C@@H](C)O)C(C)C)[C@@H](C)O)[C@@H](C)O [β-LPH 61-76 (α-endorphin), α-endorphin, reference compound] (H-YGGFMTSEKSQTPLVT-OH)
Mean Latency ± SEM, Drug (dose 20 μg): 2.50
Mean % Change ± SEM (dose 20 μg): -29.92%
Mean Latency ± SEM, Drug (dose 100 μg): 6.83 ± 0.89
Mean % Change ± SEM (dose 100 μg): 109.15 ± 24.63%
